Patent US20210269519A1

Columns and labels:
[1] = biological target: casein kinase 1 (CK1) isoform CK1γ (human protein on the ProtoArray) (human); experiment: ProtoArray human protein microarray probed with Flag-human LMBR1L-V5
FLAG-tagged DVL2 [2] = experiment: co-IP (anti-FLAG M2 agarose) from co-transfected HEK293T cells, anti-HA immunoblot
[3] = biological target: FLAG-tagged FZD6 (frizzled-6); experiment: as above
[4] = biological target: FLAG-tagged ring finger 43 (RNF43); experiment: as above
FLAG-tagged DVL2 [5] = experiment: co-IP (anti-FLAG M2 agarose) from co-transfected HEK293T cells, anti-HA immunoblot (FIG. 4B)
[6] = biological target: FLAG-tagged FZD6 (frizzled-6); experiment: as above
[7] = biological target: FLAG-tagged ring finger 43 (RNF43); experiment: as above

Measured: binding

B1: Flag-human LMBR1L-V5 (N-terminus FLAG-tagged and C-terminus V5-tagged recombinant human LMBR1L) (receptor, not shown: small tags and cut ends)
chain: MEAPDYEVLSVREQLFHERIRECIISTLLFATLYILCHIFLTRFKKPAEFTTVDDEDATVNKIALELCTFTLAIALGAVLLLPFSIISNEVLLSLPRNYYIQWLNGSLIHGLWNLVFLFSNLSLIFLMPFAYFFTESEGFAGSRKGVLGRVYETVVMLMLLTLLVLGMVWVASAIVDKNKANRESLYDFWEYYLPYLYSCISFLGVLLLLVCTPLGLARMFSVTGKLLVKPRLLEDLEEQLYCSAFEEAALTRRICNPTSCWLPLDMELLHRQVLALQTQRVLLEKRRKASAWQRNLGYPLAMLCLLVLTGLSVLIVAIHILELLIDEAAMPRGMQGTSLGQVSFSKLGSFGAVIQVVLIFYLMVSSVVGFYSSPLFRSLRPRWHDTAMTQIIGNCVCLLVLSSALPVFSRTLGLTRFDLLGDFGRFNWLGNFYIVFLYNAAFAGLTTLCLVKTFTAAVRAELIRAFGLDRLPLPVSGFPQASRKTQHQ
binds: [1]

B2: HA-tagged LMBR1L (receptor, not shown: small tags and cut ends)
chain: MEAPDYEVLSVREQLFHERIRECIISTLLFATLYILCHIFLTRFKKPAEFTTVDDEDATVNKIALELCTFTLAIALGAVLLLPFSIISNEVLLSLPRNYYIQWLNGSLIHGLWNLVFLFSNLSLIFLMPFAYFFTESEGFAGSRKGVLGRVYETVVMLMLLTLLVLGMVWVASAIVDKNKANRESLYDFWEYYLPYLYSCISFLGVLLLLVCTPLGLARMFSVTGKLLVKPRLLEDLEEQLYCSAFEEAALTRRICNPTSCWLPLDMELLHRQVLALQTQRVLLEKRRKASAWQRNLGYPLAMLCLLVLTGLSVLIVAIHILELLIDEAAMPRGMQGTSLGQVSFSKLGSFGAVIQVVLIFYLMVSSVVGFYSSPLFRSLRPRWHDTAMTQIIGNCVCLLVLSSALPVFSRTLGLTRFDLLGDFGRFNWLGNFYIVFLYNAAFAGLTTLCLVKTFTAAVRAELIRAFGLDRLPLPVSGFPQASRKTQHQ
binds: FLAG-tagged DVL2 [2] | [3] | [4] | FLAG-tagged DVL2 [5] | [6] | [7]

Results are given in words; binding and its absence hold for the method and conditions named. Binding can be weak; no strength is given. Sequences can lack the tags named with a protein. For some of these results: In cells and extracts the contact can be indirect.
